# According to PubChem BioAssay AID248 (DTP/NCI, 2004):
# The list does not hold the whole screen: it is rich in T/C values a quarter to a half above the control, in often repeated tests (any T/C) and in doses without a T/C. Other doses and runs of a compound stand elsewhere. T/C is the treated group as % of the vehicle group. Some entries give survivors of the animals treated and no T/C: the source files T/C as zero there, which appears to mark a toxic dose or a test without result, not a measured value. Some doses without a T/C left all or most animals alive at the check, yet need not have been tolerated: the source hardly ever lists a survival T/C far under the control, and the zero likely stands for such cases as well. Survivors were counted at the toxicity check, usually on the fifth day, unless a day is given; later deaths do not show. Schedule codes are those of the source, taken here to give the interval after Q, in days (D) or hours (H), and the number of doses after X. Some structures stand for samples that the source files as different forms (salt, stereo form or complex); doses refer to the form tested. Some entries hold several experiments; the values are given in rising order. For survival time, this PubChem deposit counts one and a half times the control or more as active, and values a quarter to a half above the control carry no call in these data; other NCI protocols may use other cut-offs.
# System: L1210 leukemia ip in BDF1 mice, survival T/C
# Assay: NCI In Vivo Anticancer Drug Screen. Data for tumor model L1210 Leukemia (intraperitoneal) in B6D2F1 (BDF1) mice
# Conditions: T/C endpoint: mean survival time, higher T/C = longer survival
# [1] = dose: 150.0 mg/kg/injection, schedule: Q01DX001 (ip), vehicle: saline
# [2] = dose: 300.0 mg/kg/injection, schedule: Q01DX001 (ip), vehicle: saline
# [3] = dose: 400.0 mg/kg/injection, schedule: Q01DX009 (ip), vehicle: saline with Tween-80
# [4] = dose: 200.0 mg/kg/injection, schedule: Q01DX005 (ip), vehicle: saline
# [5] = dose: 200.0 mg/kg/injection, schedule: Q01DX009 (ip), vehicle: Klucel (hydroxypropylcellulose) (HPC)
# [6] = dose: 400.0 mg/kg/injection, schedule: Q04DX003 (ip), vehicle: Klucel (hydroxypropylcellulose) (HPC)
# [7] = dose: 100.0 mg/kg/injection, schedule: Q01DX001 (ip), vehicle: Klucel (hydroxypropylcellulose) (HPC)
# [8] = dose: 400.0 mg/kg/injection, schedule: Q04DX003 (ip), vehicle: saline
# [9] = dose: 100.0 mg/kg/injection, schedule: Q04DX003 (ip), vehicle: saline
# [10] = dose: 200.0 mg/kg/injection, schedule: Q04DX003 (ip), vehicle: saline
# [11] = dose: 100.0 mg/kg/injection, schedule: Q01DX009 (ip), vehicle: Klucel (hydroxypropylcellulose) (HPC)
smiles,measurement,setting,value
CC(=O)C1C=NC(C)(C)C(C)(C)N=CC(C(C)=O)C(C)=NCCCN=C1C.[Ni] (configuration not stated),survivor count,"dose: 50.0 mg/kg/injection, schedule: Q04DX002 (ip), vehicle: saline",2 of 3
same,survivor count,"dose: 100.0 mg/kg/injection, schedule: Q04DX002 (ip), vehicle: saline",0 of 3
same,survivor count,"dose: 200.0 mg/kg/injection, schedule: Q04DX002 (ip), vehicle: saline",0 of 3
same,survivor count,"dose: 400.0 mg/kg/injection, schedule: Q04DX002 (ip), vehicle: saline",0 of 3
c1ccc(CC2NCCc3ccccc32)cc1 (configuration not stated),survivor count,"dose: 200.0 mg/kg/injection, schedule: Q01DX001 (ip), vehicle: acetone",3 of 6
same,survivor count,"dose: 400.0 mg/kg/injection, schedule: Q01DX001 (ip), vehicle: acetone",0 of 6
CNC(=O)c1ccc[n+](CC(=O)Nc2ccc(Cl)cc2)c1,survivor count,"dose: 400.0 mg/kg/injection, schedule: Q04DX003 (ip), vehicle: acetone",3 of 6
FC(F)(F)c1nc[nH]c1C(F)(F)F,survivor count,"dose: 50.0 mg/kg/injection, schedule: Q01DX009 (ip), vehicle: water",0 of 6
CCCCCCCCCCCCCC(=O)[O][Hg][c]1ccccc1,survivor count,"dose: 150.0 mg/kg/injection, schedule: Q01DX001 (ip), vehicle: steroid suspending solution",0 of 6
same,survivor count,"dose: 300.0 mg/kg/injection, schedule: Q01DX001 (ip), vehicle: steroid suspending solution",0 of 6
Cc1nc(C#N)c(N)o1,survivor count,"dose: 40.0 mg/kg/injection, schedule: Q01DX001 (ip), vehicle: saline",0 of 6
same,survivor count,"dose: 75.0 mg/kg/injection, schedule: Q01DX001 (ip), vehicle: saline",0 of 6
same,survivor count,"dose: 80.0 mg/kg/injection, schedule: Q01DX001 (ip), vehicle: saline",0 of 6
same,survivor count,[1],0 of 6
same,survivor count,[2],0 of 6
Cc1ccc(C(O)c2ccccc2)cc1 (configuration not stated),survivor count,[3],3 of 6
Cc1ccc(C)c(NC(=O)N2CCN(C)CC2)c1,survivor count,"dose: 400.0 mg/kg/injection, schedule: Q01DX009 (ip), vehicle: saline",3 of 6
FC(F)(F)S.[Ag],survivor count,[2],2 of 6
CCOC(=O)CCCN1CCC=C(C#N)C1,survivor count,[1],3 of 6
O=C(OCCC[P+](c1ccccc1)(c1ccccc1)c1ccccc1)c1ccccc1,survivor count,"dose: 100.0 mg/kg/injection, schedule: Q01DX001 (ip), vehicle: saline with Tween-80",1 of 6
same,survivor count,"dose: 200.0 mg/kg/injection, schedule: Q01DX001 (ip), vehicle: saline with Tween-80",0 of 6
same,survivor count,"dose: 400.0 mg/kg/injection, schedule: Q01DX001 (ip), vehicle: saline with Tween-80",0 of 6
Cc1ccc(S(=O)(=O)OCC2OC(n3cnc4c(NC=O)ncnc43)C(OC=O)C2OC=O)cc1 (configuration not stated),survivor count,[4],5 of 6
N#CC(C#N)=C1Cc2ccccc2C1,survivor count,"dose: 200.0 mg/kg/injection, schedule: Q04DX003 (ip), vehicle: saline with Tween-80",2 of 6
same,survivor count,"dose: 400.0 mg/kg/injection, schedule: Q04DX003 (ip), vehicle: saline with Tween-80",2 of 6
Cc1c(C(=O)CCl)c(=O)n(-c2ccccc2)n1C,survivor count,[5],3 of 6
same,survivor count,[6],1 of 6
CNCCC(=O)c1ccccc1,survivor count,[6],0 of 6
CN1C2CCCC1CC(O)(c1ccccc1)C2 (configuration not stated),survivor count,[7],1 of 6
same,survivor count,"dose: 200.0 mg/kg/injection, schedule: Q01DX001 (ip), vehicle: Klucel (hydroxypropylcellulose) (HPC)",0 of 6
same,survivor count,"dose: 400.0 mg/kg/injection, schedule: Q01DX001 (ip), vehicle: Klucel (hydroxypropylcellulose) (HPC)",0 of 6
O=C(COc1ccccc1)c1ccccc1,survivor count,"dose: 100.0 mg/kg/injection, schedule: Q04DX002 (ip), vehicle: Klucel (hydroxypropylcellulose) (HPC)",3 of 3
O=[N+]([O-])c1ccc(C2ON2C2CCCCC2)cc1 (configuration not stated),survivor count,"dose: 200.0 mg/kg/injection, schedule: Q01DX001 (ip), vehicle: carboxymethylcellulose (CMC)",6 of 6
C=C1CC(C)(c2ccc(S(=O)(=O)N3CCCC3)cc2)OC1=O (configuration not stated),survivor count,"dose: 175.0 mg/kg/injection, schedule: Q01DX009 (ip), vehicle: Klucel (hydroxypropylcellulose) (HPC)",3 of 6
same,survivor count,"dose: 350.0 mg/kg/injection, schedule: Q01DX009 (ip), vehicle: Klucel (hydroxypropylcellulose) (HPC)",0 of 6
CNCC(SC)c1ccc(O)c(O)c1 (configuration not stated),survivor count,[8],3 of 6
C=CC[Se]c1ncnc2c1ccn2C1OC(CO)C(O)C1O (configuration not stated),survivor count,[4],1 of 6
CCN(C(=O)N(CCCl)N=O)C1CCCCC1,survivor count,[1],3 of 6
same,survivor count,[2],0 of 6
c1ccc(N2CCN(c3ccccc3)CC2)cc1,survivor count,[3],6 of 6
CC(=O)OC1CC2CCC1(C)C2(C)C (configuration not stated),survivor count,[8],0 of 6
c1ccc(C[N+]23CCN(CC2)CC3)cc1,survivor count,[9],4 of 6
same,survivor count,[10],0 of 6
same,survivor count,[8],0 of 6
Cc1ccc([S+](c2ccccc2)c2cc(C)ccc2C)cc1 (configuration not stated),survivor count,"dose: 10.0 mg/kg/injection, schedule: Q01DX001 (ip), vehicle: carboxymethylcellulose (CMC)",2 of 6
same,survivor count,"dose: 15.0 mg/kg/injection, schedule: Q01DX001 (ip), vehicle: carboxymethylcellulose (CMC)",0 of 6
same,survivor count,"dose: 30.0 mg/kg/injection, schedule: Q01DX001 (ip), vehicle: carboxymethylcellulose (CMC)",0 of 6
same,survivor count,"dose: 60.0 mg/kg/injection, schedule: Q01DX001 (ip), vehicle: carboxymethylcellulose (CMC)",0 of 6
same,survivor count,"dose: 75.0 mg/kg/injection, schedule: Q01DX001 (ip), vehicle: carboxymethylcellulose (CMC)",0 of 6
same,survivor count,"dose: 150.0 mg/kg/injection, schedule: Q01DX001 (ip), vehicle: carboxymethylcellulose (CMC)",0 of 6
same,survivor count,"dose: 300.0 mg/kg/injection, schedule: Q01DX001 (ip), vehicle: carboxymethylcellulose (CMC)",0 of 6
Cn1cnc(N)c1C(N)=S,survivor count,[11],3 of 6
CC(=O)Nc1ccccc1C(=NC1CCCC1)C(=O)NC1CCCC1,survivor count,"dose: 25.0 mg/kg/injection, schedule: Q01DX009 (ip), vehicle: Klucel (hydroxypropylcellulose) (HPC)",5 of 6
same,survivor count,"dose: 50.0 mg/kg/injection, schedule: Q01DX009 (ip), vehicle: Klucel (hydroxypropylcellulose) (HPC)",0 of 6
same,survivor count,[11],0 of 6 and 6 of 6
same,survivor count,[5],6 of 6
CN1CCN(C(=O)c2ccc(Cl)c(Cl)c2)CC1,survivor count,[9],3 of 6
same,survivor count,"dose: 200.0 mg/kg/injection, schedule: Q01DX009 (ip), vehicle: saline with Tween-80",0 of 6
same,survivor count,[10],0 of 6
same,survivor count,[8],0 of 6
c1ccc(N/N=C(\C(=N\Nc2ccccc2)c2ccccc2)c2ccccc2)cc1,survivor count,[7],6 of 6
COc1cc(/C=N/N)cc(OC)c1OC,survivor count,"dose: 200.0 mg/kg/injection, schedule: Q04DX002 (ip), vehicle: Klucel (hydroxypropylcellulose) (HPC)",0 of 3
same,survivor count,"dose: 400.0 mg/kg/injection, schedule: Q04DX002 (ip), vehicle: Klucel (hydroxypropylcellulose) (HPC)",0 of 3
O=C(Oc1ccc([N+](=O)[O-])cc1)c1ccc(CBr)cc1,survivor count,[8],0 of 6
CC1=C/C(=N/Nc2ccc([N+](=O)[O-])cc2[N+](=O)[O-])CCC1,survivor count,"dose: 200.0 mg/kg/injection, schedule: Q01DX009 (ip), vehicle: acetone",4 of 6
CC(C)c1oc(=O)cc2c1C(O)C1OC(=O)C3(C)C(O)C4OC4C2(C)C13 (configuration not stated),survivor count,[5],3 of 6
same,survivor count,"dose: 400.0 mg/kg/injection, schedule: Q01DX009 (ip), vehicle: Klucel (hydroxypropylcellulose) (HPC)",0 of 6
CCOC(=O)N/N=C/c1ccccc1,T/C,[7],141 % of control
same,T/C,"dose: 100.0 mg/kg/injection, schedule: Q01DX001 (ip), vehicle: saline",141 % of control
CC1(C)N=C(N)N=C(N)N1c1ccccc1F,survivor count,[1],3 of 6
same,survivor count,"dose: 150.0 mg/kg/injection, schedule: Q01DX009 (ip), vehicle: saline",3 of 6
same,survivor count,"dose: 300.0 mg/kg/injection, schedule: Q01DX009 (ip), vehicle: saline",0 of 6
